From patent US20240010722A1 come the findings set out here.

Substitutions are numbered along the chain they refer to. These are yes or no findings as the source states them, for the method shown. For some of these results: Binding can be weak; no strength is given.

First the molecules themselves.
B1: MIAB126 (antibody, V domains shown)
VH: EVQLLESGGGLVQPGGSLRLSCAASGFTFDDYAMHWVRQAPGKGLEWVASITSSSAFIDYADSVKGRFTISRDNSKNTLYLQMNSLRAEDTAVYYCARERVDWMSYFDLWGQGTLVTVSS
VL: EIVMTQSPATLSVSPGERATLSCRASQGISNSYLAWYQQKPGQAPRLLIYGASTRATGIPARFSGSGSGTEFTLTISSLQSEDFAVYYCQQYYTYPPTFGQGTKVEIK
B2: MIAB169 (antibody, V domains shown)
VH: EVQLLESGGGLVQPGGSLRLSCAASGFTFSDFWMHWVRQAPGKGLEWISYISGDSGYTNYADSVKGRFTISRDNSKNTLYLQMNSLRAEDTAVYYCARDRPYYYIMDVWGKGTTVTVSS
VL: DIQMTQSPSSLSASVGDRVTITCRASQSVSRSLAWYQQKPGKAPKLLIYAASSLQSGVPSRFSGSGSGTDFTLTISSLQPEDFATYYCQQYKSYPVTFGQGTKVEIK
B3: MIAB153 (antibody, V domains shown)
VH: B2 VH with I105Y
VL: B2 VL with R31S, A34N
B4: MIAB151 (antibody, V domains shown)
VH: B2 VH with I105Y
VL: B2 VL with V29I, A34N
B5: MIAB148 (antibody, V domains shown)
VH: B2 VH with I105Y
VL: B2 VL with A34N
B6: MIAB141 (antibody, V domains shown)
VH: B2 VH with I105Y
VL: B2 VL with V29I, R31S, S32Y, A34N
B7: MIAB170 (antibody, V domains shown)
VH: B2 VH with I105W
VL: B2 VL

The first experiment has as its target cyno MAdCAM (cynomolgus). Nature of the experiment: ELISA on MAdCAM coat (2 ug/ml), 0-500 nM antibody. Background: ELISA stands for enzyme-linked immunosorbent assay.
With B1, the binding result is “binds”.

Another experiment deals with Insulin. Nature of the experiment: polyreactivity ELISA on insulin coat.
Take B2: the binding entry is recorded as “no binding (tested: 100 nM)”.

As to B3, the binding result is recorded as “no binding (tested: 100 nM)”.

In the case of B4, the binding entry is “no binding (tested: 100 nM)”.

As for B5, the binding entry is “no binding (tested: 100 nM)”.

As to B6, the binding result was “no binding (tested: 100 nM)”.

On to B7, for which the binding entry is reported as “no binding (tested: 100 nM)”.
